Measurements reported in PMC10454150, “Molecular Mechanism of a FRET Biosensor for the Cardiac Ryanodine Receptor Pathologically Leaky State” (International Journal of Molecular Sciences, 2023).
These are yes or no findings as the source states them, for the method shown. Binding seen in cells or lysates may run through a third protein. Some binding calls cover weakened binding; strength is not graded here.

Target: type 2 ryanodine receptor (RyR2) channel in cardiac SR membranes (pig (endogenous in porcine heart SR))
Experiment: FRET or BRET; as a1, 30 nM Ca2+, SR pre-treated with 50 uM unlabeled DPc10 for 60 min; apparent affinity; only the binder purified

B1: DPc10 peptide, unlabeled (peptide)
peptide: GFCPDHKAAMVLFLDRVYGIEVQDFLLHLLEVGFLP
For B1, the binding was “binds”.
